Source: publication PMC11077639

Chains of the proteins cited; added tags and fusions are not shown. Residues count along the entry.
UniProt Q13308, 31-1070: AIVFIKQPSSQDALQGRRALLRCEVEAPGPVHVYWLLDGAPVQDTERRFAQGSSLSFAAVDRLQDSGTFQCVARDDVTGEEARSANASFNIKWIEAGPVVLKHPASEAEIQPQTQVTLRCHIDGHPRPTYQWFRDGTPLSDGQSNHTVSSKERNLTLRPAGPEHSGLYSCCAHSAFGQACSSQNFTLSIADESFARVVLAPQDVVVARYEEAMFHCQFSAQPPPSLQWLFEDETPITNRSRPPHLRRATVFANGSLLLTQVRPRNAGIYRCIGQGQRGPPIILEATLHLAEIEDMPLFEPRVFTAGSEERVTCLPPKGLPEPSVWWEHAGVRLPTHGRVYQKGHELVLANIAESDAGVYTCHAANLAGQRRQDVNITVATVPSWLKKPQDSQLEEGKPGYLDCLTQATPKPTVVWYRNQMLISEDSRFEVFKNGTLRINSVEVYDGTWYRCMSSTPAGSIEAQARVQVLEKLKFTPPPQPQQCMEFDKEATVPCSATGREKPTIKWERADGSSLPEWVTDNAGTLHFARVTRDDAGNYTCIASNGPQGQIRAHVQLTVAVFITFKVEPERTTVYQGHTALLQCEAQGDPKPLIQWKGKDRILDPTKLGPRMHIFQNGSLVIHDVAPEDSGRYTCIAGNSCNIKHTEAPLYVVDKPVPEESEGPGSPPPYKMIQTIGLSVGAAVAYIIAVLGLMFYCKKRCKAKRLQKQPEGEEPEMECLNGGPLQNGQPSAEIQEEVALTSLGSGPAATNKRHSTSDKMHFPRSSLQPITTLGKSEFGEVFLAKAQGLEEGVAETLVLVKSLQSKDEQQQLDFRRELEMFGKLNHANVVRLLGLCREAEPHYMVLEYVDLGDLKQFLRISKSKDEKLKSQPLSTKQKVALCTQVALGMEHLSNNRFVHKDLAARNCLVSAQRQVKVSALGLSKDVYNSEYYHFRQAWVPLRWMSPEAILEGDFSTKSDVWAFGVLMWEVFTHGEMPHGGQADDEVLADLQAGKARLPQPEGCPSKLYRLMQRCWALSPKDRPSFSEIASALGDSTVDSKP
UniProt P08581, 25-1390: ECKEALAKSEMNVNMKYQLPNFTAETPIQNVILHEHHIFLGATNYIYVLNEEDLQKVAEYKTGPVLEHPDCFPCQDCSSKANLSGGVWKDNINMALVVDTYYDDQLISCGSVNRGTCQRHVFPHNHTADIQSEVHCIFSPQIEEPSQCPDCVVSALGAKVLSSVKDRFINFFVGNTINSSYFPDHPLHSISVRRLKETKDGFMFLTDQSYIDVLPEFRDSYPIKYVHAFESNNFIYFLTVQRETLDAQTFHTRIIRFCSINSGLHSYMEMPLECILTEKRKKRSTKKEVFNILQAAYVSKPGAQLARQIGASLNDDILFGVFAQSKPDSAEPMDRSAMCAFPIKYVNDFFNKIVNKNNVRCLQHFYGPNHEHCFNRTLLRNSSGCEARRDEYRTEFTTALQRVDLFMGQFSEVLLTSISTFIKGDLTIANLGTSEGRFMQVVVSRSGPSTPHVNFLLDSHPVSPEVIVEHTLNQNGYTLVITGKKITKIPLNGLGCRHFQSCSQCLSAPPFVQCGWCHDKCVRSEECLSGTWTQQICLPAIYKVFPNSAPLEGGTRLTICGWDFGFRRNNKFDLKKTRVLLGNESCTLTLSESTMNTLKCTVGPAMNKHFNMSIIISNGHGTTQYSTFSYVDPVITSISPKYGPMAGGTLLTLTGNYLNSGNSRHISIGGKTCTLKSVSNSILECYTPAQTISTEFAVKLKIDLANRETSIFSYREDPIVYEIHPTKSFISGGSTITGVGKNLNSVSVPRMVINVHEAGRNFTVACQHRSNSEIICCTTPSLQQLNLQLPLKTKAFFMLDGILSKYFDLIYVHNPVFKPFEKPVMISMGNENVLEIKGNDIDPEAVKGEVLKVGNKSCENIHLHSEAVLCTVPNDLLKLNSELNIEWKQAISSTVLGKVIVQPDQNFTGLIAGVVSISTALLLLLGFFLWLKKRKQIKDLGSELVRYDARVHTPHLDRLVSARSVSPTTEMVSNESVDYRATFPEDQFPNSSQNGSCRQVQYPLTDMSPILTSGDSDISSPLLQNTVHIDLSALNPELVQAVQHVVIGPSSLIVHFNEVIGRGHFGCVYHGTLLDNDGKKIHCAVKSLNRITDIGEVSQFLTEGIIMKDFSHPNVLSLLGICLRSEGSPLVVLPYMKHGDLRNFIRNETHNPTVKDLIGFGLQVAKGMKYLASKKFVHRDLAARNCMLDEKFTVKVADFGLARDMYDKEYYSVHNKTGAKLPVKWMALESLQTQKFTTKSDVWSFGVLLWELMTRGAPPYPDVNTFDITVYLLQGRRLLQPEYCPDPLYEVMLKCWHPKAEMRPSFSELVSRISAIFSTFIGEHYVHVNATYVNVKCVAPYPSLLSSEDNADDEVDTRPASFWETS

Columns and labels:
[1] = target: PTK7 (protein tyrosine kinase 7) on Jurkat cells (UniProt Q13308); assay: flow cytometry on cells; settings: Binding buffer: DPBS with CaCl2 and MgCl2, 4.5 g/L glucose, 5 mM MgCl2, 5 mg/mL HtDNA, 1 mg/mL BSA, 30 min on ice, about 5e5 cells in 200 uL, fit Y = Bmax X/(Kd + X), protein on the cell surface, label: 3' FAM, single-stranded DNA
[2] = target: Met (hepatocyte growth factor receptor) on MDA-MB-231 cells (UniProt P08581); assay: flow cytometry on cells; settings: MDA-MB-231 cells, value only in figure, Binding buffer: DPBS with CaCl2 and MgCl2, 4.5 g/L glucose, 5 mM MgCl2, 5 mg/mL HtDNA, 1 mg/mL BSA, 30 min on ice, about 5e5 cells in 200 uL, fit Y = Bmax X/(Kd + X), protein on the cell surface, label: 3' FAM, single-stranded DNA
[3] = Jurkat cells, Kd not significantly changed vs free Sgc8, value only in figure, 5' azide coupled to DBCO-streptavidin carrying bpM6P

“AAAAATCTAACTGCTGCGCCGCCGGGAAAATACTGTACGGTTAGA [FAM-Sgc8-SA (SA:Sgc8 = 1:3)]”: binds ([1]; 100 nM, Jurkat vs PTK7-negative Ramos, 5' azide coupled to DBCO-streptavidin, about 3 aptamers per SA).

“AAAAATCTAACTGCTGCGCCGCCGGGAAAATACTGTACGGTTAGA [FAM-Sgc8]”: binds ([1]; Jurkat cells, Kd shown only in figure, 5' azide (N3)).

“AAAAATCTAACTGCTGCGCCGCCGGGAAAATACTGTACGGTTAGA [FAM-bpM6P-Sgc8-SA (SA:Sgc8 = 1:1)]”: binds [1, 3].

“AAAAATCTAACTGCTGCGCCGCCGGGAAAATACTGTACGGTTAGA [FAM-bpM6P-Sgc8-SA (SA:Sgc8 = 1:3)]”: binds [1, 3].

“AAAAATCTAACTGCTGCGCCGCCGGGAAAATACTGTACGGTTAGA [FAM-bpM6P-Sgc8-SA (SA:Sgc8 = 1:5)]”: binds [1, 3].

“AAAAATCTAACTGCTGCGCCGCCGGGAAAATACTGTACGGTTAGA [FAM-bpM6P-Sgc8-SA (SA:Sgc8 = 1:7)]”: binds [1, 3].

“ATCAGGCTGGATGGTAGCTCGGTCGGGGTGGGTGGGTTGGCAAGTCTGAT [FAM-SL1]”: binds ([2]; 5' azide (N3)).

“ATCAGGCTGGATGGTAGCTCGGTCGGGGTGGGTGGGTTGGCAAGTCTGAT [FAM-bpM6P-SL1-SA (SA:SL1 = 1:3)]”: binds ([2]; 5' azide coupled to DBCO-streptavidin carrying bpM6P).

Construct, isoform or probe ends are uncertain for at least one entry. At least one result comes from cells or an extract, where the contact may be indirect. At least one verdict was read from the data and is not stated in words by the source.
